No constants are given. Whether binding was seen depends on the method and setting. Binding calls can cover weak binding; strength is not graded here. Sequences can lack the tags named with a protein. For some assays here: In cells and extracts the contact can be indirect.
Experiments:
[1] = biological target: T1, BD-AtSUMO3 (Arabidopsis thaliana) (UniProt Q9FLP5); experiment: two-hybrid; Gal4-based system (Clontech); AD fusions in pGAD424, BD fusions in pGBT8; yeast AH109; growth on -Leu/-Trp/-His minimal medium with 1 or 5 mM 3-AT
T1 sequence: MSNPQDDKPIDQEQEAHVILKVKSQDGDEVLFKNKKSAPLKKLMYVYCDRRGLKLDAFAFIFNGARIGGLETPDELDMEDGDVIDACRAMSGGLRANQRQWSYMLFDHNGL

[2] = biological target: T2, BD-AtSUMO5 (Arabidopsis thaliana) (UniProt Q8VZI7); experiment: as above
T2 sequence: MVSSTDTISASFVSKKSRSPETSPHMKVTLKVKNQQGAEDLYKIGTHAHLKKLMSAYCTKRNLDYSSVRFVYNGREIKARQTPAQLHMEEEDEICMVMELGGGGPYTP

[3] = biological target: T3, BD-AtSCE1 (SUMO-conjugating E2 enzyme SCE1) (Arabidopsis thaliana) (UniProt Q42551); experiment: as above
T3 sequence: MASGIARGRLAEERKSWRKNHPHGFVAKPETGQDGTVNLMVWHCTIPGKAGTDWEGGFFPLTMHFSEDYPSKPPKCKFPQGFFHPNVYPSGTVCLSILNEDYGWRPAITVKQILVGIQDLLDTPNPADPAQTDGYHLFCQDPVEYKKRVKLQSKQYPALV

[4] = biological target: T4, EYFP(N)-CNGC6 (cyclic nucleotide-gated ion channel 6) (Arabidopsis thaliana) (UniProt O82226); experiment: split reporter; EYFP(N)-CNGC6 and EYFP(C)-SSV2 coinfiltrated into N. benthamiana leaves by Agrobacterium; YFP signal by CLSM
T4 sequence: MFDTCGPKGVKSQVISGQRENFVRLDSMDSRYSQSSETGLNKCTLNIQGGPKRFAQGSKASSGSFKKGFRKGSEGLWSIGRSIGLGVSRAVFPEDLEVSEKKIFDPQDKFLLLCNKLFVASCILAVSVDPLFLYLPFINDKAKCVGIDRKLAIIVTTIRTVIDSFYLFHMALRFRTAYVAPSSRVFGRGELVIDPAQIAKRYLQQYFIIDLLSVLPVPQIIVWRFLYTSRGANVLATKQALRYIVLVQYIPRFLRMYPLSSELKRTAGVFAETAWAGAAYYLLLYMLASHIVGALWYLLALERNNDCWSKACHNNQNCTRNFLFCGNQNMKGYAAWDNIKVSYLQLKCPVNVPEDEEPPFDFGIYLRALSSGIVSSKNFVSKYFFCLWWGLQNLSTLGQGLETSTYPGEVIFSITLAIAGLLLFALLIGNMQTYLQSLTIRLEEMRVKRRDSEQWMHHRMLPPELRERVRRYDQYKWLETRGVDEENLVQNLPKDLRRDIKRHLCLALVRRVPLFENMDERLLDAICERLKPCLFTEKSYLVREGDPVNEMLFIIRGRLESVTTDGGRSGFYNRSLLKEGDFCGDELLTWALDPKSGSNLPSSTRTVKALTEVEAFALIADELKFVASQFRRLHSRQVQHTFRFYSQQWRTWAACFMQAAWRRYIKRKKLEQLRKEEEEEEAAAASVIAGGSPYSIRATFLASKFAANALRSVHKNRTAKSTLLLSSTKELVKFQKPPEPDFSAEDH

Substance	binding [1]	binding [2]	binding [3]	binding [4]
AD-SSV2 (SIZ1 splicing variant 2, 832 aa) (Arabidopsis thaliana) (enzyme)	binds	binds	binds	
EYFP(C)-SSV2 (SIZ1 splicing variant 2) (Arabidopsis thaliana) (enzyme)				binds
AD-SSV3-D (SSV3 residues 1 to 858, lacking the SSV3-specific C-terminal 25 aa) (Arabidopsis thaliana) (domain or fragment)			binds	
AD-SSV1 (SIZ1 splicing variant 1, 885 aa) (Arabidopsis thaliana) (enzyme)	binds weakly	binds weakly	binds	
AD-SIZ1 (Arabidopsis E3 SUMO ligase SIZ1, 873 aa) (enzyme)	binds	binds	binds	
